Reference: paper PMC10746174
No constants are given. Whether binding was seen depends on the method and setting. Binding seen in cells or lysates may run through a third protein. A result given as binding can be weak or reduced; the word gives no strength.

The chains behind the UniProt entries cited, without tags or fusion partners. Where a name states a change or a piece, a line headed by the entry shows the natural chain unless it says otherwise.
UniProt P33927: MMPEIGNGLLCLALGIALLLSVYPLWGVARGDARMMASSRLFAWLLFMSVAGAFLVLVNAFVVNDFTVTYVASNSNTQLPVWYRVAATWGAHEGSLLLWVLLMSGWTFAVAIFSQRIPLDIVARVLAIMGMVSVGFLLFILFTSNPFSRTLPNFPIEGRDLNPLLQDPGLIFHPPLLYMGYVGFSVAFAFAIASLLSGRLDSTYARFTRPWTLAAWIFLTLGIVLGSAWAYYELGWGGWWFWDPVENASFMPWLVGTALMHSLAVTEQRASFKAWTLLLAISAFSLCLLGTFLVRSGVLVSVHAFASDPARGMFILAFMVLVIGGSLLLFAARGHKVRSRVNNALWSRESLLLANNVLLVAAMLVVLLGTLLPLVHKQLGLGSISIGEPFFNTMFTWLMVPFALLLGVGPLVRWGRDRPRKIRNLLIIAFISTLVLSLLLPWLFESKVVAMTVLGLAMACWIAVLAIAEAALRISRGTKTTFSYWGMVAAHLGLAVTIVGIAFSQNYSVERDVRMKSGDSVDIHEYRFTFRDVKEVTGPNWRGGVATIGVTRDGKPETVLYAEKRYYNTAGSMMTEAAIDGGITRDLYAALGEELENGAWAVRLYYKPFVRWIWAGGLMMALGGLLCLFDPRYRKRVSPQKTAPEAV

What was measured:
Assay in all cases: pull-down; CcmF:6×His (C-terminal tag) co-expressed with the complete System I pathway in E. coli Δccm (RK103) and affinity purified; 5 µg of purified protein separated by SDS-PAGE; immunoblots with α-CcmH and α-CcmE, heme stain for holoCcmE
[1] = molecular target: CcmF:6×His W242C (E. coli) (UniProt P33927)
[2] = molecular target: CcmF:6×His Y232A (E. coli) (UniProt P33927)
[3] = molecular target: CcmF:6×His P244C (E. coli) (UniProt P33927)

Measured: binding

B1: CcmH (protein, UniProt P0ABM9 19-350)
chain: TIDVLQFKDEAQEQQFRQLTEELRCPKCQNNSIADSNSMIATDLRQKVYELMQEGKSKKEIVDYMVARYGNFVTYDPPLTPLTVLLWVLPVVAIGIGGWVIYARSRRRVRVVPEAFPEQSVPEGKRAGYVVYLPGIVVALIVAGVSYYQTGNYQQVKIWQQATAQAPALLDRALDPKADPLNEEEMSRLALGMRTQLQKNPGDIEGWIMLGRVGMALGNASIATDAYATAYRLDPKNSDAALGYAEALTRSSDPNDNRLGGELLRQLVRTDHSNIRVLSMYAFNAFEQQRFGEAVAAWEMMLKLLPANDTRRAVIERSIAQAMQHLSPQESK
binds: [1] | [2] | [3]
